Laboratory results as given in patent US9133230B2, “Hydrazone derivatives having potent antitumor activity toward multi-drug resistant tumor cells” (THE UNITED STATES OF AMERICA AS REPRESENTED BY THE …, priority 2011, dated 2015).
Some entries share one result that the patent states for a list of compounds.

System: human colorectal carcinoma HT29
Test: Western blot of signal transduction pathways in HT29 cells
Format: cell-based
Conditions: HT29, IC50 dose
Experimental: The newly synthesized hydrazones RPC038, RPC042, and RPC046 had shown anti-tumor activity against 60 human cancer cell lines panel of the National Cancer Institute and on multi-drug resistant cell lines. The present studies were conducted to evaluate their action on signal transduction pathways in human colorectal carcinoma HT29. All the three compounds were examined at their IC50 doses.
Human colorectal carcinoma HT29 cells were obtained from the National Cancer Institute, Bethesda, Md., USA, and maintained in 5% CO2 at 37° C. in minimum essential media (Life Technologies, Inc., Grand Island, N.Y., USA) supplemented with 1% penicillin, streptomycin (Invitrogen, Carlsbad, Calif., USA), and 10% fetal bovine serum for optimal growth. HT29 cells (1×10^6) were plated in […], and 24 h later, fresh media was added and treated with the RPC038, RPC042 and RPC046 for indicated time points (2, 4, 8, 16 and 24 h). The cells were then washed with cold phosphate buffered saline (PBS) and taken in 1 ml PBS on ice and centrifuged at 4° C. […] Blots were blocked, incubated with primary anti-pMEK, pERK, pJNK, pcjun, ERK, JNK, Cjun, Caspase-8, Caspase-6, PARP cleavage, or GAPDH antibodies (Cell Signaling Technology, Danvers, Mass.) and then conjugated with a secondary anti-mouse or an anti-rabbit horseradish […] antibody, and detected by ChemiDoc™ XRS+ System with Image Lab™ Software.

C(=NNc1ncnc2[nH]cnc12)c1ccccn1 [I-18, 6-(2-(Pyridin-2-ylmethylene)hydrazinyl)-9H-purine]
PARP cleavage (time): ≥ 16 h
